Values from PubChem BioAssay AID1053208 (Peter MacCallum Cancer Centre, 2014).
Here is a random part of about 17,000 reagents tested. Of all reagents, 788 (4.7%) are marked active. 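Calls rest on z-score classes alone; an extra cut-off of viability at most 70% of control was not applied to them.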 The numbers tell different reagents against one gene apart. Further read-outs or replicates are left out here.

Assay: 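Find knock-downs that sensitise mouse osteosarcoma cells to doxorubicin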 (primary screen)
System: mouse osteosarcoma cells, early-passage culture from an engineered mouse model of fibroblastic bone tumour
Reagent: siRNA pool against mouse genes, 40 nM
Time to read-out: about 120 h (48 h before drug, then 72 h with drug)
Challenge: doxorubicin 100 nM for 72 h, roughly 30-40% inhibitory dose
Detection: 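Viability read as ATP luminescence after 72 h of 100 nM doxorubicin or none, duplicate wells averaged, scaled to non-targeting siRNA, then expressed as robust z-scores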
Direction: viability z-score with doxorubicin: higher = more viable cells under doxorubicin; viability z-score without drug: higher = more viable cells with knock-down alone; z-score of drug to no-drug ratio: higher = less drug sensitisation by knock-down
Active means: 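a pool counts as active when its viability z-score with doxorubicin is -2 or below and its z-score without drug lies between -2 and 2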

gene	pool no.	combined z-score class	viability z-score with doxorubicin	viability z-score without drug	z-score of drug to no-drug ratio	activity call
Dcaf10 (DDB1 and CUL4 associated factor 10)	1	no change with or without drug	0.67	0.51	0.45	inactive
Agbl3 (ATP/GTP binding protein-like 3)	1	no change with or without drug	0.67	0.34	0.56	inactive
Mrps33 (mitochondrial ribosomal protein S33)	1	low cell count with and without drug	-2.02	-2.19	-0.56	inactive
Ambn (ameloblastin)	1	no change with or without drug	-0.67	-1.52	0.45	inactive
Enpp6 (ectonucleotide pyrophosphatase/phosphodiesterase 6)	1	no change with or without drug	0	0.34	-0.11	inactive
Zranb1 (zinc finger, RAN-binding domain containing 1)	1	no change with or without drug	0.34	0.67	0	inactive
Polr1d (polymerase (RNA) I polypeptide D)	1	no change with or without drug	0.22	-0.51	0.67	inactive
Vmn1r201 (vomeronasal 1 receptor 201)	1	no change with or without drug	-1.8	-0.17	-1.69	inactive
Tfap4 (transcription factor AP4)	1	no change with or without drug	-0.45	-0.84	0.22	inactive
Adam1a (a disintegrin and metallopeptidase domain 1a)	1	no change with or without drug	0.22	-0.17	0.45	inactive
Ints8 (integrator complex subunit 8)	1	no change with or without drug	-0.45	-1.01	0.34	inactive
Spty2d1 (SPT2 chromatin protein domain containing 1)	1	no change with or without drug	-0.34	-0.17	-0.11	inactive
Vmn1r50 (vomeronasal 1 receptor 50)	1	no change with or without drug	0.45	-1.69	1.91	inactive
Birc3 (baculoviral IAP repeat-containing 3)	1	no change with or without drug	-1.35	0.51	-1.57	inactive
Nat8f4 (N-acetyltransferase 8 (GCN5-related) family member 4)	1	no change with or without drug	1.12	0.84	0.67	inactive
Klf7 (Kruppel-like transcription factor 7 (ubiquitous))	1	no change with or without drug	0.79	0.84	0.34	inactive
Chst11 (carbohydrate sulfotransferase 11)	1	no change with or without drug	-1.35	0.84	-1.8	inactive
Rbm45 (RNA binding motif protein 45)	1	no change with or without drug	0	0.51	-0.22	inactive
Cd151 (CD151 antigen)	1	no change with or without drug	1.69	1.18	1.01	inactive
Taf9 (TATA-box binding protein associated factor 9)	1	no change with or without drug	0.22	0.67	-0.11	inactive
Taf9 (TATA-box binding protein associated factor 9)	2	no change with or without drug	-1.12	-1.01	-0.45	inactive
Chn2 (chimerin 2)	1	no change with or without drug	0.45	1.01	-0.11	inactive
Sema6a	1	no change with or without drug	0.34	-0.17	0.56	inactive
Plod1 (procollagen-lysine, 2-oxoglutarate 5-dioxygenase 1)	1	no change with or without drug	0.45	0.51	0.22	inactive
Hspa4l (heat shock protein 4 like)	1	no change with or without drug	1.24	0.17	1.24	inactive
Chst7 (carbohydrate sulfotransferase 7)	1	no change with or without drug	-0.22	0.51	-0.45	inactive
Aldh1a1 (aldehyde dehydrogenase family 1, subfamily A1)	1	no change with or without drug	-0.22	0.51	-0.45	inactive
Nubp1 (nucleotide binding protein 1)	1	no change with or without drug	0.34	0	0.45	inactive
Actr1b (ARP1 actin-related protein 1B, centractin beta)	1	no change with or without drug	-0.22	-0.84	0.45	inactive
Cpe (carboxypeptidase E)	1	no change with or without drug	-0.11	-0.17	0.11	inactive
Cnga2 (cyclic nucleotide gated channel alpha 2)	1	no change with or without drug	0	-0.51	0.45	inactive
Or13a28 (olfactory receptor family 13 subfamily A member 28)	1	no change with or without drug	0.45	0	0.56	inactive
Slc35a2	1	no change with or without drug	-0.22	-1.18	0.79	inactive
Dgki (diacylglycerol kinase, iota)	1	high cell count with doxorubicin only	2.02	-0.34	2.47	inactive
Or2b28 (olfactory receptor family 2 subfamily B member 28)	1	no change with or without drug	-0.79	-1.52	0.34	inactive
4930539J05Rik (RIKEN cDNA 4930539J05 gene)	1	no change with or without drug	0.22	0.51	0	inactive
Ik (IK cytokine)	1	low cell count with and without drug	-2.81	-2.87	-1.12	inactive
Klf17 (Kruppel-like transcription factor 17)	1	no change with or without drug	-0.34	1.52	-1.12	inactive
Etv5 (ets variant 5)	1	no change with or without drug	1.57	1.35	0.79	inactive
Afap1l2 (actin filament associated protein 1-like 2)	1	no change with or without drug	-0.67	0.84	-1.12	inactive
Klhl7 (kelch-like 7)	1	no change with or without drug	-0.67	1.01	-1.24	inactive
B230219D22Rik (RIKEN cDNA B230219D22 gene)	1	no change with or without drug	0.9	0.51	0.67	inactive
Pcdhb19 (protocadherin beta 19)	1	no change with or without drug	0.56	-0.34	0.9	inactive
Slc44a2	1	no change with or without drug	-0.22	-0.17	0	inactive
Rpl12 (ribosomal protein L12)	1	low cell count with and without drug	-7.31	-7.25	-4.72	inactive
Slc16a1	1	no change with or without drug	0	1.52	-0.9	inactive
Krt79 (keratin 79)	1	no change with or without drug	0.22	-0.84	1.01	inactive
Maz	1	no change with or without drug	0.9	-0.17	1.24	inactive
Ccdc66 (coiled-coil domain containing 66)	1	no change with or without drug	-0.67	0.67	-1.01	inactive
Or10ag53 (olfactory receptor family 10 subfamily AG member 53)	1	high cell count with and without drug	2.25	2.02	1.01	inactive

An excerpt of the results above, as a working copy:
gene	pool no.	combined z-score class	viability z-score with doxorubicin	viability z-score without drug	z-score of drug to no-drug ratio	activity call
Ints8 (integrator complex subunit 8)	1	no change with or without drug	-0.45	-1.01	0.34	inactive
Spty2d1 (SPT2 chromatin protein domain containing 1)	1	no change with or without drug	-0.34	-0.17	-0.11	inactive
Vmn1r50 (vomeronasal 1 receptor 50)	1	no change with or without drug	0.45	-1.69	1.91	inactive
Birc3 (baculoviral IAP repeat-containing 3)	1	no change with or without drug	-1.35	0.51	-1.57	inactive
Nat8f4 (N-acetyltransferase 8 (GCN5-related) family member 4)	1	no change with or without drug	1.12	0.84	0.67	inactive
Klf7 (Kruppel-like transcription factor 7 (ubiquitous))	1	no change with or without drug	0.79	0.84	0.34	inactive
Chst11 (carbohydrate sulfotransferase 11)	1	no change with or without drug	-1.35	0.84	-1.8	inactive
Rbm45 (RNA binding motif protein 45)	1	no change with or without drug	0	0.51	-0.22	inactive
